Data as given in PubChem BioAssay AID743454 (Peter MacCallum Cancer Centre, 2014)
Test: 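Genes whose loss kills vorinostat-resistant colon cancer cells under vorinostat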 (primary screen). Cells: human HCT116-VR colon cancer cells, selected for vorinostat resistance. Reagent: siRNA pool against human genes, 40 nM siRNA pool. Time to read-out: vorinostat for 24 h, read-out about 72 h after transfection. Challenge: vorinostat at 2.5 µM final. Measurement: 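Cell viability by CellTiter-Fluor and caspase 3/7 activity by luminescence, each scaled to mock wells per plate, duplicates averaged, then robust z-scored over all plates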. Scale: viability robust z-score: higher = more viable cells than screen typical; caspase robust z-score: higher = more caspase 3/7 activity than screen typical. Call rule: 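a knock-down is a hit when classed RV1 or RV2 for lowered viability, or CA1 or CA2 for caspase activation; those lethal without drug were dropped; hits were retested singly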.
Here is a random part of about 18,000 reagents. 450 of all reagents (2.5%) were called active. 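Single biological run; no consistent viability z cut-off exists, so the class columns, not z-scores, define the calls.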 The numbers tell different reagents against one gene apart. No sequences are given here.

After knock-down of PCSK5, the record shows viability hit class no change; caspase hit class no change; viability robust z-score -0.52; caspase robust z-score 1.34; inactive.
KPNA4 showed viability hit class no change; caspase hit class no change; viability robust z-score -0.38; caspase robust z-score -0.88; inactive.
After knock-down of MORC3, the screen gave viability hit class no change; caspase hit class no change; viability robust z-score -0.04; caspase robust z-score 1.02; inactive.
FAM13C showed viability hit class no change; caspase hit class no change; viability robust z-score 0.29; caspase robust z-score 0.34; inactive.
After knock-down of USP38, the record shows viability hit class no change; caspase hit class no change; viability robust z-score -1.41; caspase robust z-score 1.55; inactive.

An excerpt from above, reduced to “viability hit class”:
FAM13C: no change
USP38: no change

Additional results follow:
Against RNF38, the values are viability hit class no change; caspase hit class no change; viability robust z-score 0; caspase robust z-score -0.7; inactive.
Silencing of DPM1 gave: viability hit class no change; caspase hit class no change; viability robust z-score -0.03; caspase robust z-score -0.34; inactive.
Silencing of CTSB resulted in: viability hit class no change; caspase hit class no change; viability robust z-score -1.97; caspase robust z-score 0.7; inactive.
After knock-down of DNAAF1 the results were viability hit class no change; caspase hit class no change; viability robust z-score -0.56; caspase robust z-score -0.92; inactive.
With knock-down of CCDC140, the screen gave viability hit class no change; caspase hit class no change; viability robust z-score 1.34; caspase robust z-score -0.46; inactive.
Against TXLNGY #1 the deposit lists viability hit class no change; caspase hit class no change; viability robust z-score 0.86; caspase robust z-score -0.18; inactive.
Depletion of TXLNGY #2 came out at: viability hit class no change; caspase hit class no change; viability robust z-score 0.6; caspase robust z-score -0.08; inactive.
Silencing of SLC22A23 resulted in: viability hit class no change; caspase hit class no change; viability robust z-score 0.32; caspase robust z-score -0.57; inactive.
With knock-down of OR13C8, the record shows viability hit class no change; caspase hit class no change; viability robust z-score -0.07; caspase robust z-score -0.06; inactive.
